The target in assay [1] is H2A–mTurquoise2–RhoA(G14V)ΔCaaX (UniProt P61586). The assay can be described thus: nuclear enrichment with a GTPase tethered to the nucleus (spinning disk microscopy); HeLa cells co-expressing H2A–mTurquoise2–Rho GTPase (constitutively active, ΔCaaX) or H2A–mTurquoise2 as control and the fluorescently tagged candidate; ratio of nuclear to cytosolic intensity of the candidate.

Amino acid sequences for entries named in this document (tags omitted). A change or cut given only in a name is not applied to a line headed by its entry.
UniProt P61586: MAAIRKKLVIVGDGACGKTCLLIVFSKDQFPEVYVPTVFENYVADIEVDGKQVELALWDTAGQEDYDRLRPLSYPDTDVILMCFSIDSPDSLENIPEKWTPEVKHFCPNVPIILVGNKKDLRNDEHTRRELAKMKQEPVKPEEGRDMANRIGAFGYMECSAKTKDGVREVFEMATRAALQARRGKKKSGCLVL
UniProt P60953: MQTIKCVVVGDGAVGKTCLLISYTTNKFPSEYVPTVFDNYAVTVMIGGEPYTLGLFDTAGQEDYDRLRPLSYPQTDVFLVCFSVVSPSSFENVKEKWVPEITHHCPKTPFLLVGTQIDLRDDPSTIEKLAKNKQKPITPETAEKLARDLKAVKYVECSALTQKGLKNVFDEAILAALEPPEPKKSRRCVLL
UniProt P42768: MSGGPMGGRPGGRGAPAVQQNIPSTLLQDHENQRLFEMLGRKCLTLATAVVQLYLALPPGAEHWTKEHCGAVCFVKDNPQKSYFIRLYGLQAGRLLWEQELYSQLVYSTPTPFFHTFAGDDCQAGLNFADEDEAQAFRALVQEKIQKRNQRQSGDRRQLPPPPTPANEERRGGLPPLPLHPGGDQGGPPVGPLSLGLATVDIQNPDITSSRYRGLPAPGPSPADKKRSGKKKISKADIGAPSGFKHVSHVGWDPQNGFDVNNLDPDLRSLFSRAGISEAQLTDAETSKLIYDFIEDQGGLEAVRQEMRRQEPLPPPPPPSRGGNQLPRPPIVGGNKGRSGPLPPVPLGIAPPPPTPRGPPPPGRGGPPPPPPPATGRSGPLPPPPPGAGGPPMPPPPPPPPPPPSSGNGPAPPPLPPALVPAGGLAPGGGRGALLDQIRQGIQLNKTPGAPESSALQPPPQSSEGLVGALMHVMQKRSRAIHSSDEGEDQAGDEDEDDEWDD
UniProt Q13153: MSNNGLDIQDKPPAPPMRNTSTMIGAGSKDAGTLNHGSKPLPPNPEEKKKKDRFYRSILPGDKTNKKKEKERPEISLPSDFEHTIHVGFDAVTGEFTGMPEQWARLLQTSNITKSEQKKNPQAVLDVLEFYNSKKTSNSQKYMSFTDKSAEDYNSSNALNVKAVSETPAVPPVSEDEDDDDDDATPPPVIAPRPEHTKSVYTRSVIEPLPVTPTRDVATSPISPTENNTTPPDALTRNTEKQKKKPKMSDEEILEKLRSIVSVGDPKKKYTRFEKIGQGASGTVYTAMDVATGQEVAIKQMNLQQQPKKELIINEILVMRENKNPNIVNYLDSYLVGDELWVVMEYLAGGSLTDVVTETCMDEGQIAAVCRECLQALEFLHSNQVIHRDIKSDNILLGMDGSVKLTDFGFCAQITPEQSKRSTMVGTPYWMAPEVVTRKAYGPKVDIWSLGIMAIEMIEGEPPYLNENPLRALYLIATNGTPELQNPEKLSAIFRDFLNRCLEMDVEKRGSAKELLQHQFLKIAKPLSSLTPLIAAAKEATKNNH
UniProt O96013: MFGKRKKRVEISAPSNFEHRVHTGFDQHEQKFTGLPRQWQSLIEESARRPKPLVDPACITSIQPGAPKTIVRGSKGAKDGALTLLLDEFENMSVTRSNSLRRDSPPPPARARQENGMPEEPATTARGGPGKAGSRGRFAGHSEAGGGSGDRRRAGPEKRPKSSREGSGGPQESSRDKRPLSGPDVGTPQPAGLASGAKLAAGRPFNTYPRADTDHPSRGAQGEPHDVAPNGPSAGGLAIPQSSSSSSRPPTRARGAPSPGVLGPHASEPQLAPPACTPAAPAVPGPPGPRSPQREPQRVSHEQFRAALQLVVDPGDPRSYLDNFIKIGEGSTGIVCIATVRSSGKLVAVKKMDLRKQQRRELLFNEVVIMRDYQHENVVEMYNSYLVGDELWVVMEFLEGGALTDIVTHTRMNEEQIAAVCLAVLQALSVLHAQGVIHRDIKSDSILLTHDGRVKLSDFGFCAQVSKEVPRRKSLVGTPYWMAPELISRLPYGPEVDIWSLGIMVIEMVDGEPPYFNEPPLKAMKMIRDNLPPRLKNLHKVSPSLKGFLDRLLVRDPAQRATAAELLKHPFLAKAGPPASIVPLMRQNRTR
UniProt O00401: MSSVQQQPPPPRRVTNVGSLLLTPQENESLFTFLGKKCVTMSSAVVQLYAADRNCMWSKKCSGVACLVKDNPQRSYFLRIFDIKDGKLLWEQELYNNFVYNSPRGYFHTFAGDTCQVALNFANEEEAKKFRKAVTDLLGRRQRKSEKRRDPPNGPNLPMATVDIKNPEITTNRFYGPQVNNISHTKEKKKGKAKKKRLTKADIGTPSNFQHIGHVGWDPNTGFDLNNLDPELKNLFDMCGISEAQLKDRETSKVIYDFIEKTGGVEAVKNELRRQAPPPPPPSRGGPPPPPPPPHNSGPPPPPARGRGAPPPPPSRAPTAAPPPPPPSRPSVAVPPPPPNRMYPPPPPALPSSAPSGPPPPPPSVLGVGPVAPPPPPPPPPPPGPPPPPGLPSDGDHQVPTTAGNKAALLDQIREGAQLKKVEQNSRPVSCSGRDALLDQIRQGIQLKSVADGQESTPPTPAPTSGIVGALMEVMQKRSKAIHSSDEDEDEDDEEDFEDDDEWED
UniProt Q07912: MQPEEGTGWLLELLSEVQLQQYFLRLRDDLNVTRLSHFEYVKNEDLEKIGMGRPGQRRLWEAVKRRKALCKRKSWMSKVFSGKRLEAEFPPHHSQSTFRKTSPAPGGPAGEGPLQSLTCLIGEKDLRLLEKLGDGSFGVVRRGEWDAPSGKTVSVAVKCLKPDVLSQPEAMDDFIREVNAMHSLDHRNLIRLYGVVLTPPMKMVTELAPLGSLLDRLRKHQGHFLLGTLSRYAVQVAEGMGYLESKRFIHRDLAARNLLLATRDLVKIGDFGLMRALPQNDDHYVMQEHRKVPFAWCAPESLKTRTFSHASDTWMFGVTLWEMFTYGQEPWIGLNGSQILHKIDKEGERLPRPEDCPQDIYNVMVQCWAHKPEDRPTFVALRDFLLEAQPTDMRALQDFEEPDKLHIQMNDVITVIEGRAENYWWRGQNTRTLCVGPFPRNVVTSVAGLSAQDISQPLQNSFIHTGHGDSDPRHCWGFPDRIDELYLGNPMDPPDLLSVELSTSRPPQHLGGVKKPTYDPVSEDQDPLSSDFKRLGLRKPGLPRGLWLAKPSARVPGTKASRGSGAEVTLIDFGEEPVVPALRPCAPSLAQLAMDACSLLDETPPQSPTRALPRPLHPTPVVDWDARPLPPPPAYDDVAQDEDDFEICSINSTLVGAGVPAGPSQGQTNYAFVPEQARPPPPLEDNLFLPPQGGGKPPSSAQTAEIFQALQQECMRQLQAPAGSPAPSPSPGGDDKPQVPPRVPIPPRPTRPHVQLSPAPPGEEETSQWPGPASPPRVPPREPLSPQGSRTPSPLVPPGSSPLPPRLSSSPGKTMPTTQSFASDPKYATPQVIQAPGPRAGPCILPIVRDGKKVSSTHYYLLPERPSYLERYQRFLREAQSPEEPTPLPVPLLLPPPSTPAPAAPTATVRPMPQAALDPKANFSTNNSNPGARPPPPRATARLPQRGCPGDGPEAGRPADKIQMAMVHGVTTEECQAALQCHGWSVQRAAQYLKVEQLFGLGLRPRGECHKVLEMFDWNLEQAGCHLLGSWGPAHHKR

The target in assay [2] is TOMM20–mTurquoise2–Cdc42(G12V)ΔCaaX (UniProt P60953). The assay can be described thus: partition between a GTPase tethered to mitochondria and one tethered to the nucleus (spinning disk microscopy); HeLa cells co-expressing TOMM20–mTurquoise2–Cdc42(G12V)ΔCaaX, H2A–mTurquoise2–Rac1(G12V)ΔCaaX and the mScarlet-I tagged CRIB; direct competition in cells.
The target in assay [3] is H2A–mTurquoise2–Cdc42(G12V)ΔCaaX (UniProt P60953). The assay can be described thus: nuclear enrichment with a GTPase tethered to the nucleus (spinning disk microscopy); HeLa cells co-expressing H2A–mTurquoise2–Rho GTPase (constitutively active, ΔCaaX) or H2A–mTurquoise2 as control and the fluorescently tagged candidate; ratio of nuclear to cytosolic intensity of the candidate.

These are yes or no findings as the source states them, for the method shown. For some assays here: A result given as binding can be weak or reduced; the word gives no strength.

For the molecule “dimericTomato–WASp(CRIB) (from UniProt P42768 238-251) (domain or fragment)”, the binding result in assay [1] is listed as “no binding”.

In the case of “mScarlet-I–Pak1(CRIB) (from UniProt Q13153 75-88) (domain or fragment)”, the binding result in assay [2] and in assay [3] was “binds” throughout.

In the case of “mScarlet-I–WASp(CRIB) (from UniProt P42768 238-251) (domain or fragment)”, the binding result in assay [2] and in assay [3] was “binds” throughout.

Turning to ISAPSNFEHRVHTG (domain or fragment, UniProt O96013 11-24) [mScarlet-I–Pak4(CRIB)], the binding entry in assay [2] and in assay [3] was “binds” throughout.

In the case of IGTPSNFQHIGHVG (domain or fragment, UniProt O00401 203-216) [mScarlet-I–N-WASP(CRIB)], the binding entry in assay [2] and in assay [3] was “binds” in each case.

Regarding ISQPLQNSFIHTG (domain or fragment, UniProt Q07912 454-466) [mScarlet-I–TNK2(CRIB)], the binding result in assay [2] and in assay [3] was “binds” in each case.

The values are drawn from publication PMC10234108.
